Measured values as given in paper PMC4345284.
These are yes or no findings as the source states them, for the method shown. In cells and extracts the contact can be indirect.

Sequences of proteins named here, by UniProt entry; tags and fusion partners are left off.
UniProt Q90988: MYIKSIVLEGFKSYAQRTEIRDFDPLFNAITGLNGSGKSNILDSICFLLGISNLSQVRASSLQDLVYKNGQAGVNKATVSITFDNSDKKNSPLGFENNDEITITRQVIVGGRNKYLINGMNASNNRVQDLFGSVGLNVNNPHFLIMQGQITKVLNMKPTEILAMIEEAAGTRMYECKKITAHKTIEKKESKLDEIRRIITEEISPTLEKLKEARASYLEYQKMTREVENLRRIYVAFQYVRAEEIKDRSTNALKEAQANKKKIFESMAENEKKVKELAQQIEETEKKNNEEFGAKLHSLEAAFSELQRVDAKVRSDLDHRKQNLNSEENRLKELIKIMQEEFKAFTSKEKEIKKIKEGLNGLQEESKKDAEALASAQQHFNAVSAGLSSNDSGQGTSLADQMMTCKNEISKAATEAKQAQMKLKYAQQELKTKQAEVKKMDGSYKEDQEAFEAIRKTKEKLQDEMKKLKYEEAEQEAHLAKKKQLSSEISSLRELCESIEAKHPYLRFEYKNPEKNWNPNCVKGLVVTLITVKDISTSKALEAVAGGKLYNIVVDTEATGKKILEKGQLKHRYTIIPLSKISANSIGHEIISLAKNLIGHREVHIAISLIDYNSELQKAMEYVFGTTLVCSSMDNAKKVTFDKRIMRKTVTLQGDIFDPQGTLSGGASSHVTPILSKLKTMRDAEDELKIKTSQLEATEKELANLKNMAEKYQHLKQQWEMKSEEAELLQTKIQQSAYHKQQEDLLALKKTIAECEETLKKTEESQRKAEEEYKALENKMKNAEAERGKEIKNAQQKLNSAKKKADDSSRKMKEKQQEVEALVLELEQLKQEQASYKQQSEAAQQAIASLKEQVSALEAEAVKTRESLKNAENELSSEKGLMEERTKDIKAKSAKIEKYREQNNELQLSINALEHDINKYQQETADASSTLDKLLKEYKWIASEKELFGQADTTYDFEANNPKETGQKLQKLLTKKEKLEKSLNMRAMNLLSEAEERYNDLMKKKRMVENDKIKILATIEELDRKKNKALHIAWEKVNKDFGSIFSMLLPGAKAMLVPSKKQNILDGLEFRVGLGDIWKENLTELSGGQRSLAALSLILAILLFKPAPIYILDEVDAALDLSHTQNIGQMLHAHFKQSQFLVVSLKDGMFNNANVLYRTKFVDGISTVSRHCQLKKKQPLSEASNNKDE
UniProt A0A1D5PE93: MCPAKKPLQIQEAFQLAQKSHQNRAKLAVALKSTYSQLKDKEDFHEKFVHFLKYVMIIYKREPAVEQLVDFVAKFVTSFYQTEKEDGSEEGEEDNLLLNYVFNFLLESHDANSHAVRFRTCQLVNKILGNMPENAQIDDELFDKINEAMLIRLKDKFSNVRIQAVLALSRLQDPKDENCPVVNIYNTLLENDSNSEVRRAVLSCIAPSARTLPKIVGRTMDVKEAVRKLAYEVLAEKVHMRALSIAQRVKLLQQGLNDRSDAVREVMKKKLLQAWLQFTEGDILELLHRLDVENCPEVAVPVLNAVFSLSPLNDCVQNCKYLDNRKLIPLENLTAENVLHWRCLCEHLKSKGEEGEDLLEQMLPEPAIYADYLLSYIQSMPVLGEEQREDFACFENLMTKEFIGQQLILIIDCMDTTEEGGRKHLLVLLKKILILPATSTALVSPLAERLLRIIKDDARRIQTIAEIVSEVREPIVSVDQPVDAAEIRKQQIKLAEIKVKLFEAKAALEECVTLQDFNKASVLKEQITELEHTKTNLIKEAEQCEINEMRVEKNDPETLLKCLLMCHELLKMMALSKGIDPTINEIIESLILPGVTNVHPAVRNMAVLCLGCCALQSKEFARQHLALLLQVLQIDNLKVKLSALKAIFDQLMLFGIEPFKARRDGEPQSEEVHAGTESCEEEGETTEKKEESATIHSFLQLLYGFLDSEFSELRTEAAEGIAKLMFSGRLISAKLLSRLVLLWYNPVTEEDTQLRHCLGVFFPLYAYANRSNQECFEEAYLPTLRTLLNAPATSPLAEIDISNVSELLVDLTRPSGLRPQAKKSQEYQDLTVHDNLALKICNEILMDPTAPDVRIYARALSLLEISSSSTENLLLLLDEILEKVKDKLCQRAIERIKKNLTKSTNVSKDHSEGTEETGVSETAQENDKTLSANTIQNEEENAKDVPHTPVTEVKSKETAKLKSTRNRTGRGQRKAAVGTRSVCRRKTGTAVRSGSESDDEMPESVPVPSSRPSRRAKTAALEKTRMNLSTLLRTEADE

Biological target: streptavidin-binding peptide (SBP)-tagged SMC2 (chicken) (UniProt Q90988)
Test: pull-down; SBP-tagged SMC2 captured from mitotic DT40 cell lysate on streptavidin-sepharose, 2 h at 4°C; 50 mM HEPES, 0.25 M NaCl, 0.5% NP-40; eluted with 4 mM biotin; SDS-PAGE

CAP-G (from UniProt A0A1D5PE93 1-1038) was tested, and the binding was “no binding”.
